# Library screening results

Measurements from “University of Dundee, Small-Polar-MMV Screening Library” (2021), ChEMBL document CHEMBL3988442.

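Viability assay of Plasmodium falciparum sporozoites; the read-out is not stated. The concentration is filed as 10 mM, unlikely as a test dose, so the dose is not known. Higher reads as lower viability (inferred: compounds with an IC50 in retests scored well above the rest). Strong results were mostly tested again. Of about 34,000 compounds tested this way, about 280 (0.84%) reached 50% or more in at least one test.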

The filed quantity is “Percent Effect” (%).
The record does not define 0% and 100%; most values in the screen are far below 50% and negative numbers occur (in some assays of this library far below -100).
The compounds are a random part of those screened.
Two or more numbers in one place are separate tests of the same structure; such repeats can differ widely.

| # | structure | Percent Effect |
|---|---|---|
| 1 | `O=C(O)C(F)(F)F.[H][C@@]12CCN(Cc3cccc(C)c3)C[C@]1(C(=O)NC)CCO2` | -9.288% |
| 2 | `CNC(=O)C1Cn2ccnc2C2(CCN(Cc3cccs3)CC2)O1.O=C(O)C(F)(F)F.O=C(O)C(F)(F)F` (configuration not stated) | 10.05% |
| 3 | `Cc1cc(C)nc(Nc2ccc(C3CCCCN3)cn2)n1` (configuration not stated) | 7.801% & 56.92% & 35.73% |
| 4 | `CC(C)C1CC(=O)Nc2c1cnn2Cc1ccco1` (configuration not stated) | 8.81% |
| 5 | `O=C(c1ccc(O)c(Cl)c1)N1CCC(c2n[nH]c(C3CC3)n2)CC1` | 2.625% |
| 6 | `COc1ccc(C(=O)N2Cc3c(Cn4ccnc4)nn(C)c3C2)cc1` | -10.27% |
| 7 | `COc1ccc(C(=O)NCCNC(=O)c2scnc2Cl)cc1` | 6.835% |
| 8 | `COc1cccc(N2CCN(C(=O)C(O)c3cccc(Cl)c3)CC2=O)c1` (configuration not stated) | -3.647% & 12.5% & 19.39% |
| 9 | `O=C(C1CC1)N1CC[C@H](O)[C@@H]1Cc1ccccc1` | -3.716% |
| 10 | `CC(NC(=O)NCCc1cnn(C)c1)c1ccc(Cl)s1` (configuration not stated) | -15.68% |
| 11 | `CN(CCNC(=O)Nc1ccn(C)n1)Cc1ccc(F)cc1` | 9.132% |
| 12 | `O=C(NC1CCN(c2cccc(OC(F)(F)F)c2)C1=O)C1CC1` (configuration not stated) | 0.9804% |
| 13 | `COCCn1cc2c(n1)C(CNCc1nccs1)OCC2.O=C(O)C(F)(F)F.O=C(O)C(F)(F)F` (configuration not stated) | 10.09% |
| 14 | `CN(Cc1nc(C2CC2)no1)C(=O)CN1CC(c2ccccc2)CC1=O` (configuration not stated) | 3.176% |
| 15 | `CC(C)C(=O)N1CCC(c2nc3ccccn3c2NC(C)(C)C)CC1` | 8.803% |
| 16 | `Cc1ccccc1CS(=O)(=O)CC(=O)NC1CCCCNC1=O` (configuration not stated) | 2.617% |
| 17 | `Cn1cc(CN2CC[C@@H](O)[C@@H]2Cc2ccccc2)cn1` | -1.632% |
| 18 | `CS(=O)(=O)N1CCC(NC(=O)COc2ccc(Cl)cc2)CC1` | 1.283% |
| 19 | `Cc1ncccc1CNCC1CCN(CCO)CC1` | -17.3% & -27.06% & 4.038% |
| 20 | `Cc1cc(C)n(CC2CCCN2C(=O)CCNc2ncccn2)n1` (configuration not stated) | -7.977% |
| 21 | `COCC(=O)NC[C@H]1CC[C@H](c2nnc(-c3ccncc3)o2)CC1` | 2.935% |
| 22 | `CN(Cc1nnc(C2CC2)n1C)C1CCN(Cc2ccon2)C1` (configuration not stated) | -1.92% |
| 23 | `Cl.c1cc(OCc2ccc3c(c2)OCCO3)ccc1CNC1CC1` | 43.63% & 7.598% & -23.35% |
| 24 | `O=C(O)C(F)(F)F.O=C(O)C(F)(F)F.[H][C@@]12CN(Cc3ccccc3)C[C@]1([H])C(=O)N(CCN1CCCC1)C2` | 2.189% |
| 25 | `CN(Cc1ccc(N2CCOCC2)cc1)C(=O)Cn1cccnc1=O` | 12.82% |
| 26 | `Cc1nc(C)c(C(=O)N2CCCC2(C)C(=O)NC2CCCC2)o1` (configuration not stated) | -2.621% |
| 27 | `Cc1cc2cc(C(=O)N[C@@H]3CC[C@@H](N4CCOCC4)[C@@H]3O)ccc2o1` | -9.36% |
| 28 | `CCn1ccnc1CN1CCN(CC(O)c2ccccc2)CC1` (configuration not stated) | 1.771% |
| 29 | `COc1ccc(N2CCN(C(=O)[C@@H]3C[C@@H](O)CN3)CC2(C)C)cc1` | 1.404% |
| 30 | `COCC(=O)N1CCOCC2(CCN(Cc3cccs3)C2)C1.O=C(O)C(F)(F)F` (configuration not stated) | -1.349% |
| 31 | `Cc1ccc(NC2CCN(C(=O)Cc3c(C)nn(C)c3C)CC2)nn1` | 1.225% |
| 32 | `Cc1nc2cc(C3CCN(C(=O)c4ccccn4)CC3)nn2c(O)c1C` | 12.48% |
| 33 | `Cn1cc(C(=O)Nc2ccc3c(c2)N(C(=O)c2ccco2)CC3)nn1` | 9.579% |
| 34 | `O=C(O)C(F)(F)F.[H][C@@]12CCCO[C@]1([H])[C@@H](NC(=O)C1CC1)CN2Cc1ccsc1` | -5.054% |
| 35 | `Cc1nc(-c2ccccc2)n(CC(=O)NCC(C)C)n1` | 6.88% |
| 36 | `CCc1nc(CN(C)CC(c2cccs2)N2CCOCC2)no1` (configuration not stated) | 7.268% |
| 37 | `Cc1cnc(CN(Cc2ccccc2)CC(O)c2cccs2)cn1` (configuration not stated) | -7.843% |
| 38 | `COc1ccccc1N1CCN(Cc2nccc(OC)c2OC)CC1=O` | -7.538% |
| 39 | `CC(=O)N1CCCC1c1ccc(C(=O)N2CCOCC2)s1` (configuration not stated) | 9.227% |
| 40 | `Cc1cc(C(=O)NC(C)Cc2cccc(Cl)c2)n(C)n1` (configuration not stated) | -7.007% |
| 41 | `CCOn1c(SC(C)C)nc2ccccc2c1=O` | -0.9991% |
| 42 | `CCc1ccc(OCC(O)CN2CCN(CCO)CC2)cc1.Cl.Cl` (configuration not stated) | -5% |
| 43 | `CN(C)CC(=O)N1CCC2(CC1)COC(COc1ccccn1)C2.O=C(O)C(F)(F)F.O=C(O)C(F)(F)F` (configuration not stated) | -8.166% |
| 44 | `CS(=O)(=O)c1snnc1C1CCN(Cc2cccnc2)CC1` | 10.39% |
| 45 | `Cc1cc2ccccc2n1CCC(=O)N1CCCC1Cn1cccn1` (configuration not stated) | -8.25% |
| 46 | `Cc1ccc(CN2CCOC3(COCCN(CCN(C)C)C3)C2)o1.O=C(O)C(F)(F)F.O=C(O)C(F)(F)F.O=C(O)C(F)(F)F` (configuration not stated) | 6.574% |
| 47 | `COc1cc(CNC(C)Cn2cccn2)cc(OC)c1OC.Cl` (configuration not stated) | 0.3271% |
| 48 | `Cc1nnc(C2Cc3ccccc3CN2Cc2nc(C(C)C)no2)o1` (configuration not stated) | -0.3741% |
| 49 | `COC(=O)c1cccc(C(=O)NCc2ccc3c(c2)CCCN3C)c1` | -3.922% |
| 50 | `COc1ccc(CN2CCn3cc(CN4CCCCC4)nc3C2)cc1.O=C(O)C(F)(F)F.O=C(O)C(F)(F)F` | -4.804% |
| 51 | `CCc1sc(C(=O)N2CCC(Nc3ccc(C)nn3)CC2)cc1C` | 16.23% |
| 52 | `CS(=O)(=O)c1cccc(C(=O)NCC2(c3ccccc3)CC2)c1` | -3.003% |
| 53 | `COc1ccc(NC(=O)Nc2c(O)c3ccccc3oc2=O)cc1` | 13.34% |
| 54 | `COc1ccc2c(C)c(C(=O)NCCCc3csc(N)n3)oc2c1` | 0.4353% |
| 55 | `CN(C(=O)c1cc(Cl)c[nH]1)C1CCN(c2ccccn2)CC1` | -13.18% |
| 56 | `O=C(CSc1ccc(F)cc1)NS(=O)(=O)c1ccc2c(c1)OCCO2` | -6.07% |
| 57 | `CC(C)CCN1C2(CCN(c3ncccn3)C2)c2ccccc2S1(=O)=O` (configuration not stated) | 7.589% |
| 58 | `Clc1ccccc1C1(c2ccnc(-c3ncccn3)n2)CCNCC1` | -3.053% |
| 59 | `O=C(NCCn1ccnc1)c1ccn(-c2ccccc2F)n1` | 2.783% |
| 60 | `Cn1cnc(S(=O)(=O)NCCCN2CCCC2=O)c1Cl` | -14.33% |
| 61 | `Cc1csc(N2CCN(C(=O)CCn3cncn3)CC2)n1` | -4.688% |
| 62 | `Cc1nccn1C1CCCN(C(=O)CCOCC(F)(F)F)C1` (configuration not stated) | -13.46% & 10.06% & -18.89% |
| 63 | `COc1ccc2c(c1)CCCN2Cc1nc2c(cnn2C)c(=O)[nH]1` | 1.891% |
| 64 | `O=C(CCc1ccc(Cl)cc1)N[C@@H]1CC[C@@H](O)[C@@H]1O` | -5.582% |
| 65 | `[H][C@]12CCN(Cc3cnn(C)c3)[C@@]1([H])C[C@@H](C(=O)N1CCOCC1)O2` | -9.245% |
| 66 | `N#Cc1ccc(SCCOCCO)c(F)c1` | -14.63% |
| 67 | `Cn1ncc2c(=O)[nH]c(CN(Cc3ccco3)C3CC3)nc21` | 4.88% |
| 68 | `Cc1cccc(NC2CCN(C(=O)Nc3cccc4[nH]ccc34)CC2)n1` | -6.677% & 3.207% & -4.811% |
| 69 | `[H][C@@]12COC[C@@H](CC(=O)NCCOC)[C@]1([H])CN(C(=O)C1CCOCC1)C2` | -0.7005% |
| 70 | `[H][C@@]12CCN(C(=O)c3ccc[nH]3)[C@]1([H])CCC(=O)N2Cc1csc(C)n1` | -3.704% |
| 71 | `CN(C)c1cc2c(nn1)CCN(C(=O)Cc1noc3ccccc13)C2` | 12.88% |
| 72 | `CCc1noc(C(C)N2CCC(C)CC2)n1` (configuration not stated) | 4.469% |
| 73 | `COCCN1CC(c2cc(O)nc(NC(C)C)n2)CC1=O` (configuration not stated) | 2.275% |
| 74 | `O=C(NCCc1ccncc1)c1cccnc1OCC(F)(F)F` | -0.502% |
| 75 | `Cc1cnn(CC2CCCN2CC(=O)NC2CCOCC2)c1` (configuration not stated) | 3.701% & -25.38% & -45.04% |
| 76 | `O=C(CN1CCCCC1Cn1cncn1)NCc1ccccn1` (configuration not stated) | 3.536% |
| 77 | `COc1ccc(-c2n[nH]c(C)c2CC(=O)NCC2CCCO2)cc1` (configuration not stated) | -4.853% |
| 78 | `CCOc1ncccc1CNC(=O)c1cc(C)on1` | 0.06439% |
| 79 | `Cn1cc(CN2CCC3(CCN(c4cnn(C)c4)C3=O)C2)cn1.O=C(O)C(F)(F)F` (configuration not stated) | 2.259% |
| 80 | `CC(C)N1CCC(c2cccc(C(=O)N(C)C)n2)CC1` | 14.07% |
| 81 | `N#Cc1cccc(CN2CCN(Cc3cscn3)CC2)c1` | -3.79% |
| 82 | `Fc1cccnc1CN1CCCCC1c1ccn2ccnc2n1` (configuration not stated) | -5.889% |
| 83 | `Cc1cc(CNC(=O)NC(C)c2ccncc2)no1` (configuration not stated) | 2.181% |
| 84 | `CN(C)c1cc(CNC(=O)c2cccc(F)c2)ccn1` | -1.14% |
| 85 | `Cc1cc(C2CCN(S(=O)(=O)N(C)C)CC2)ccn1` | 0.3229% |
| 86 | `O=C(O)C(F)(F)F.[H][C@@]12CCN(Cc3cnn(C)c3)[C@@]1([H])CCN2C(=O)c1cccc(F)c1` | 3.906% |
| 87 | `CC1(c2ncc(CN3CCOCC3)cn2)CCCCO1` (configuration not stated) | -1.604% |

The first 7 entries again:

structure	Percent Effect
O=C(O)C(F)(F)F.[H][C@@]12CCN(Cc3cccc(C)c3)C[C@]1(C(=O)NC)CCO2	-9.288%
CNC(=O)C1Cn2ccnc2C2(CCN(Cc3cccs3)CC2)O1.O=C(O)C(F)(F)F.O=C(O)C(F)(F)F (configuration not stated)	10.05%
Cc1cc(C)nc(Nc2ccc(C3CCCCN3)cn2)n1 (configuration not stated)	7.801% & 56.92% & 35.73%
CC(C)C1CC(=O)Nc2c1cnn2Cc1ccco1 (configuration not stated)	8.81%
O=C(c1ccc(O)c(Cl)c1)N1CCC(c2n[nH]c(C3CC3)n2)CC1	2.625%
COc1ccc(C(=O)N2Cc3c(Cn4ccnc4)nn(C)c3C2)cc1	-10.27%
COc1ccc(C(=O)NCCNC(=O)c2scnc2Cl)cc1	6.835%